The values below come from publication PMC3561343.

Chains of the proteins cited; added tags and fusions are not shown.
UniProt P31749: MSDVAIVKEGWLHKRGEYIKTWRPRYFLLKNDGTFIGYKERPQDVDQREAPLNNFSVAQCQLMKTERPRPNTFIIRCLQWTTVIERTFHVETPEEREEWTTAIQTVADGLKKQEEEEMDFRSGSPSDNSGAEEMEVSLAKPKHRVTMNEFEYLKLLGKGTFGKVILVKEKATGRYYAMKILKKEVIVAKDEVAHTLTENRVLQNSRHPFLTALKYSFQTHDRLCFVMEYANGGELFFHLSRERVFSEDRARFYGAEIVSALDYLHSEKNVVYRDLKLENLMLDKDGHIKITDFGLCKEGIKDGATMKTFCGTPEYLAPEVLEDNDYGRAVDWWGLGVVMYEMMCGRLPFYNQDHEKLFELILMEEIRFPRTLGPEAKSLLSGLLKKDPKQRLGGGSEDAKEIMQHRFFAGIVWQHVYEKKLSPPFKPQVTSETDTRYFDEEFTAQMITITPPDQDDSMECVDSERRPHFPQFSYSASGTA
UniProt P25963: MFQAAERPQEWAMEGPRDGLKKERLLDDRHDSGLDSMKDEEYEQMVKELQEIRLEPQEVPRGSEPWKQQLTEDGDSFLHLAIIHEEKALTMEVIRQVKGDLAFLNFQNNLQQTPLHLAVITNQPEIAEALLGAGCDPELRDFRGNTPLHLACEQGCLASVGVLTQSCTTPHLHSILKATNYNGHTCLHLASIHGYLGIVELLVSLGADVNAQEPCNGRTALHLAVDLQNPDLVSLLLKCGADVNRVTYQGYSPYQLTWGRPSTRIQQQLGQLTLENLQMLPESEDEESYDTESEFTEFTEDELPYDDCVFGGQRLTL
UniProt P38936: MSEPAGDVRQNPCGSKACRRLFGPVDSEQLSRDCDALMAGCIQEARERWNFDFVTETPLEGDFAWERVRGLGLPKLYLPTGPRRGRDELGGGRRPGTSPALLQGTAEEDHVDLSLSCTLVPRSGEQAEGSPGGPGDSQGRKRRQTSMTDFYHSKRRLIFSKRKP
UniProt P46527: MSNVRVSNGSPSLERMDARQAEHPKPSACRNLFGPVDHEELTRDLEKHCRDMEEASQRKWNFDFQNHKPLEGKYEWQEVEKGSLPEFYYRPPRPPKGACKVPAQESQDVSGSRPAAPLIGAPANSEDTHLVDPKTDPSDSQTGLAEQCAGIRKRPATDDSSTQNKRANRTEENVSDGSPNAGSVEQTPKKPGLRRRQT

The assay addresses VCP-Flag (valosin-containing protein, wild type) (UniProt P55072). As to the kind of experiment: co-IP; AGS cells expressing VCP-Flag, Tri-mut VCP-Flag or empty vector, incubated with H. pylori (6 hr), with MG-132 or LY294002 pretreatment in some panels; lysate precipitated with anti-Flag M2 affinity gel 4 hr at 4°C; immunoblot of the precipitate. Background: Immunoblotting shows a protein as a band on a membrane.

These are yes or no findings as the source states them, for the method shown. In cells and extracts the contact can be indirect. Some entries that bind do so weakly or less than the wild type.

As to Akt (from UniProt P31749 1-480), the binding result is listed as “binds”.
On to IκBα (from UniProt P25963 1-317), for which the binding entry is given as “binds”.
Regarding p21^Cip1 (from UniProt P38936 1-164), the binding result was “binds”.
In the case of p27^kip1 (from UniProt P46527 1-198), the binding entry was “binds”.

B1: Bcl-2-associated death promoter (BAD) (protein, UniProt Q92934 1-168)
chain: MFQIPEFEPSEQEDSSSAERGLGPSPAGDGPSGSGKHHRQAPGLLWDASHQQEQPTSSSHHGGAGAVEIRSRHSSYPAGTEDDEGMGEEPSPFRGRSRSAPPNLWAAQRYGRELRRMSDEFVDSFKKGLPRPKSAGTATQMRQSSSWTRVFQSWWDRNLGRGSSAPSQ
Turning to B1, the binding result is reported as “binds”.

B2: programmed cell death 4 (PDCD4) (protein, UniProt Q53EL6 1-469)
chain: MDVENEQILNVNPADPDNLSDSLFSGDEENAGTEEIKNEINGNWISASSINEARINAKAKRRLRKNSSRDSGRGDSVSDSGSDALRSGLTVPTSPKGRLLDRRSRSGKGRGLPKKGGAGGKGVWGTPGQVYDVEEVDVKDPNYDDDQENCVYETVVLPLDERAFEKTLTPIIQEYFEHGDTNEVAEMLRDLNLGEMKSGVPVLAVSLALEGKASHREMTSKLLSDLCGTVMSTTDVEKSFDKLLKDLPELALDTPRAPQLVGQFIARAVGDGILCNTYIDSYKGTVDCVQARAALDKATVLLSMSKGGKRKDSVWGSGGGQQSVNHLVKEIDMLLKEYLLSGDISEAEHCLKELEVPHFHHELVYEAIIMVLESTGESTFKMILDLLKSLWKSSTITVDQMKRGYERIYNEIPDINLDVPHSYSVLERFVEECFQAGIISKQLRDLCPSRGRKRFVSEGDGGRLKPESY
Turning to B2, the binding result is listed as “binds”.
